# According to paper PMC4347017:
# Protein sequences, listed by entry. Tags and fused reporters are not part of them.
# UniProt Q96P20: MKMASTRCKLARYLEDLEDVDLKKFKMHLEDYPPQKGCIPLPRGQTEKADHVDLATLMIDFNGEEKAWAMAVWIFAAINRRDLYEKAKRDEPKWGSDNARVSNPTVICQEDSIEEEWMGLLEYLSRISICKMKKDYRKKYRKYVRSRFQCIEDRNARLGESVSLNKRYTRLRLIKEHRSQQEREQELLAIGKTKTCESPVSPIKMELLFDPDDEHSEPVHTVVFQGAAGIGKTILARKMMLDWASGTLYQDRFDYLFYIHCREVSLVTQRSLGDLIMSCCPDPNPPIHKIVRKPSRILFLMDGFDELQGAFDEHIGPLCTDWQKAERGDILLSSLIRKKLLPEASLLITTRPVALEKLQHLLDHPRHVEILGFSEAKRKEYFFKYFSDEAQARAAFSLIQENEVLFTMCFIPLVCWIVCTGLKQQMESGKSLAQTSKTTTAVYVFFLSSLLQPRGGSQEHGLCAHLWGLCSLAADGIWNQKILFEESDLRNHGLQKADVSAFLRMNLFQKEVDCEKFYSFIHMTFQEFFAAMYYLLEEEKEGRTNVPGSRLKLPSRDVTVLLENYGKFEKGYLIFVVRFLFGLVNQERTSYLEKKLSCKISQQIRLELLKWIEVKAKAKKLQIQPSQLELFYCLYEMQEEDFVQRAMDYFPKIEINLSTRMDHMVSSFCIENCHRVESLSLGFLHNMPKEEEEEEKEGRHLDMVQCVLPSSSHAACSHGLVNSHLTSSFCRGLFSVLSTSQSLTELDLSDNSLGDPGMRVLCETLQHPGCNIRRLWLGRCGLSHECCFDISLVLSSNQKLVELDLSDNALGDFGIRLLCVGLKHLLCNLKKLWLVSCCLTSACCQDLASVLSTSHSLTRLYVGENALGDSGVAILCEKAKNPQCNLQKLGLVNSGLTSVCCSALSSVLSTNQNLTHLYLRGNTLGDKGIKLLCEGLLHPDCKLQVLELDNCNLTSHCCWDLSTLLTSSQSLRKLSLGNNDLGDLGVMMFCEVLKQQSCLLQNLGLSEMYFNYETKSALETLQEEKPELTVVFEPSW
# UniProt Q8R4B8: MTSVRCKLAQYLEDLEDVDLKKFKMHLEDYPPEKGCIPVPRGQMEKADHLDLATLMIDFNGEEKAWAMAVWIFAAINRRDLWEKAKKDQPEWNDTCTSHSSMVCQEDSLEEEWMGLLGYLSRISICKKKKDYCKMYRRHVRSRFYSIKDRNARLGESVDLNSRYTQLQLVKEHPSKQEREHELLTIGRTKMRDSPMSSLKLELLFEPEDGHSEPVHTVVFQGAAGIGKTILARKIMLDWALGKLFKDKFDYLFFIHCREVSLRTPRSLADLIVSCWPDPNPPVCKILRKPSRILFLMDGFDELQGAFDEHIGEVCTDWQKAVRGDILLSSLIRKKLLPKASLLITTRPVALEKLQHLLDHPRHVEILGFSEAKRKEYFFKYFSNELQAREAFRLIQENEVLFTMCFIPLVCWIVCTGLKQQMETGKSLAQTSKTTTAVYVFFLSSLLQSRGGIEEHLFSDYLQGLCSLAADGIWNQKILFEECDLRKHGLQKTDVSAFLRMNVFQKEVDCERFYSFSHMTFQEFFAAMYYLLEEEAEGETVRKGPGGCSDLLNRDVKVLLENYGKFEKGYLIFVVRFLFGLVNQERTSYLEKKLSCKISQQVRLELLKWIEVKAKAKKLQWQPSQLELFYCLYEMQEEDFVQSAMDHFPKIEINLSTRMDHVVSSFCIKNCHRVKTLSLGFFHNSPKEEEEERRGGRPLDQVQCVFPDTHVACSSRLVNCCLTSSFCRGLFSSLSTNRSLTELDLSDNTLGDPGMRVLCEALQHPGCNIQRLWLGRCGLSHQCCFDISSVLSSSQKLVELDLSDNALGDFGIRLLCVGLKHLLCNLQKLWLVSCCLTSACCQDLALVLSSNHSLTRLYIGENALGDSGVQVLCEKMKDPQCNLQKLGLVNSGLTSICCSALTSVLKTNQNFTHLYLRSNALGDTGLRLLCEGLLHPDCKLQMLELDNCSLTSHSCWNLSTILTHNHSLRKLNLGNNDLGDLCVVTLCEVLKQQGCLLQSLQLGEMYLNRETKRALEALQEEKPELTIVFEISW
# UniProt Q9ULZ3: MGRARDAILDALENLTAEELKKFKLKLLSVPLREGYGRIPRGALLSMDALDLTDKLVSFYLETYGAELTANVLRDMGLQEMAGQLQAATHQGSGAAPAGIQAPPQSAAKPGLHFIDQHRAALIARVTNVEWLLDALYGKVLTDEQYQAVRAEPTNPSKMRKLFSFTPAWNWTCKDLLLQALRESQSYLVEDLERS
# Where a chain is given by its changes, count along the chain named. Numbers in names are those of the source. These are yes or no findings as the source states them, for the method shown. Binding seen in cells or lysates may run through a third protein. Some binding calls cover weakened binding; strength is not graded here. For part of these data: Where a sequence is shown, tags or fusion partners need not be part of it.
# B1: SHP Δ2–10 (C-terminal HA tag, in pEGFP-C1) (protein, UniProt Q15466)
# chain: MCQGAASRPAILYALLSSSLKAVPRPRSRCLCRQHRPVQLCAPHRTCREALDVLAKTVAFLRNLPSFWQLPPQDQRRLLQGCWGPLFLLGLAQDAVTFEVAEAPVPSILKKILLEEPSSSGGSGQLPDRPQPSLAAVQWLQCCLESFWSLELSPKEYACLKGTILFNPDVPGLQAASHIGHLQQEAHWVLCEVLEPWCPAAQGRLTRVLLTASTLKSIPTSLLGDLFFRPIIGDVDIAGLLGDMLLLR
# B2: SHP Δ2–19 (C-terminal HA tag, in pEGFP-C1) (protein, UniProt Q15466)
# chain: MILYALLSSSLKAVPRPRSRCLCRQHRPVQLCAPHRTCREALDVLAKTVAFLRNLPSFWQLPPQDQRRLLQGCWGPLFLLGLAQDAVTFEVAEAPVPSILKKILLEEPSSSGGSGQLPDRPQPSLAAVQWLQCCLESFWSLELSPKEYACLKGTILFNPDVPGLQAASHIGHLQQEAHWVLCEVLEPWCPAAQGRLTRVLLTASTLKSIPTSLLGDLFFRPIIGDVDIAGLLGDMLLLR
# B3: thioredoxin interacting protein (TXNIP), endogenous in mouse bone marrow-derived macrophages (protein, UniProt Q8BG60 1-397)
# chain: MVMFKKIKSFEVVFNDPEKVYGSGEKVAGRVIVEVCEVTRVKAVRILACGVAKVLWMQGSQQCKQTLDYLRYEDTLLLEEQPTAGENEMVIMRPGNKYEYKFGFELPQGPLGTSFKGKYGCVDYWVKAFLDRPSQPTQEAKKNFEVMDLVDVNTPDLMAPVSAKKEKKVSCMFIPDGRVSVSARIDRKGFCEGDDISIHADFENTCSRIVVPKAAIVARHTYLANGQTKVFTQKLSSVRGNHIISGTCASWRGKSLRVQKIRPSILGCNILKVEYSLLIYVSVPGSKKVILDLPLVIGSRSGLSSRTSSMASRTSSEMSWIDLNIPDTPEAPPCYMDIIPEDHRLESPTTPLLDDVDDSQDSPIFMYAPEFQFMPPPTYTEVDPCVLNNNNNNNNVQ
# B4: Small heterodimer partner (SHP), endogenous in mouse bone marrow-derived macrophages (protein, UniProt Q62227 1-260)
# chain: MSSGQSGVCPCQGSAGRPTILYALLSPSPRTRPVAPASHSHCLCQQQRPVRLCAPHRTCREALDVLAKTVAFLRNLPSFCHLPHEDQRRLLECCWGPLFLLGLAQDAVTFEVAEAPVPSILKKILLEEASSGTQGAQPSDRPQPSLAAVQWLQRCLESFWSLELGPKEYAYLKGTILFNPDVPGLRASCHIAHLQQEAHWALCEVLEPWYPASQGRLARILLMASTLKNIPGTLLVDLFFRPIMGDVDITELLEDMLLLR
# B5: Small heterodimer partner (SHP), endogenous in human THP-1 cells (protein, UniProt Q15466 1-257)
# chain: MSTSQPGACPCQGAASRPAILYALLSSSLKAVPRPRSRCLCRQHRPVQLCAPHRTCREALDVLAKTVAFLRNLPSFWQLPPQDQRRLLQGCWGPLFLLGLAQDAVTFEVAEAPVPSILKKILLEEPSSSGGSGQLPDRPQPSLAAVQWLQCCLESFWSLELSPKEYACLKGTILFNPDVPGLQAASHIGHLQQEAHWVLCEVLEPWCPAAQGRLTRVLLTASTLKSIPTSLLGDLFFRPIIGDVDIAGLLGDMLLLR
# B6: V5-SHP S26D (protein, UniProt Q15466 1-257)
# chain: B5 chain with S26D
# B7: V5-tagged SHP (protein, UniProt Q15466 1-257)
# chain: B5 chain
# B8: V5-SHP S26A (protein, UniProt Q15466 1-257)
# chain: B5 chain with S26A
# B9: mitochondrial antiviral-signalling protein (MAVS), endogenous in mouse bone marrow-derived macrophages (protein, UniProt Q8VCF0 1-503)
# chain: MTFAEDKTYKYIRDNHSKFCCVDVLEILPYLSCLTASDQDRLRASYRQIGNRDTLWGLFNNLQRRPGWVEVFIRALQICELPGLADQVTRVYQSYLPPGTSLRSLEPLQLPDFPAAVSGPSAFAPGHNIPDHGLRETPSCPKPVQDTQPPESPVENSEQLLQTNSGAVARMSGGSLIPSPNQQALSPQPSREHQEQEPELGGAHAANVASVPIATYGPVSPTVSFQPLPRTALRTNLLSGVTVSALSADTSLSSSSTGSAFAKGAGDQAKAATCFSTTLTNSVTTSSVPSPRLVPVKTMSSKLPLSSKSTAAMTSTVLTNTAPSKLPSNSVYAGTVPSRVPASVAKAPANTIPPERNSKQAKETPEGPATKVTTGGNQTGPNSSIRSLHSGPEMSKPGVLVSQLDEPFSACSVDLAISPSSSLVSEPNHGPEENEYSSFRIQVDESPSADLLGSPEPLATQQPQEEEEHCASSMPWAKWLGATSALLAVFLAVMLYRSRRLAQ
# What was measured:
# [1] = molecular target: T1, Small heterodimer partner (SHP), endogenous in human THP-1 cells (human (endogenous in THP-1)) (UniProt Q15466); test: co-IP; endogenous proteins, human THP-1 cells after NLRP3 inflammasome activation (Supplementary Fig. 1a,b)
# T1 sequence: B5 chain
# [2] = molecular target: T2, Small heterodimer partner (SHP), endogenous in mouse bone marrow-derived macrophages (mouse (endogenous in BMDMs)) (UniProt Q62227); test: co-IP; endogenous proteins, whole-cell lysates (RIPA buffer) of LPS-primed BMDMs stimulated with ATP for the indicated durations; IP with anti-SHP or anti-NLRP3; also cells treated with fenofibrate or AICAR
# T2 sequence: B4 chain
# [3] = molecular target: Flag-tagged NLRP3 (human) (UniProt Q96P20); test: co-IP; HEK293T cells co-transfected with tagged constructs, RIPA lysates; IP with anti-V5, anti-Flag or anti-AU1, immunoblot for Flag, V5, AU1 or GFP
# [4] = molecular target: NOD-like receptor family, pyrin domain-containing 3 (NLRP3), endogenous in mouse bone marrow-derived macrophages (mouse (endogenous in BMDMs)) (UniProt Q8R4B8); test: co-IP; LPS-primed BMDMs (SHP+/+ and SHP-/-) stimulated with ATP (5 mM), subcellularly fractionated (cytosolic, mitochondrial), IP with anti-NLRP3, immunoblot for SHP, ASC, MAVS, TXNIP, NLRP3
# [5] = molecular target: NLRP3, endogenous in human THP-1 cells (human (endogenous in THP-1)) (UniProt Q96P20); test: co-IP; THP-1 cells after NLRP3 inflammasome stimulation, mitochondrial fraction (Supplementary Fig. 7)
molecule,measurement,setting,value
"ASC, endogenous in human THP-1 cells (from UniProt Q9ULZ3 1-195)",binding,[1],no binding
"NOD-like receptor family, pyrin domain-containing 3 (NLRP3), endogenous in mouse bone marrow-derived macrophages (from UniProt Q8R4B8 1-1033)",binding,[2],binds
"NLRP3, endogenous in human THP-1 cells (from UniProt Q96P20 1-1036)",binding,[1],binds
B1,binding,[3],binds
B2,binding,[3],binds
B3,binding,[4],binds
B4,binding,[4],binds
B5,binding,[5],binds
B6,binding,[3],binds
B7,binding,[3],binds
B8,binding,[3],binds
B9,binding,[4],binds
